Some of the results follow.
Legend:
Experiment in all cases: log2 fold change, soluble protein after heating vs DMSO (PISA); higher = thermal stabilisation; K562 cells, 10 uM, 30 min; active = over 0.2 and 3.5 SD of the protein, either way, in both replicates (recomputed)
[1] = compound: C1=CC=C(C=C1)[C@H](COC2=CC3=C(C=C2)NC(=O)N3)NC(=O)C4=CC=CN(C4=O)CC5=CC(=C(C=C5)F)F
Summary of the method: (§1)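 Quantification of soluble protein used TMTpro 16plex LC-MS/MS, with channel sums equalised. Samples were the supernatant after 21,000xg for 90 min of pooled aliquots from K562 cells (2×10^6 cells/mL) treated with 10 μM compound for 30 min, heated for 3 min over 48°C-58°C, and extracted in PBS with 0.5% NP-40 at 4°C. Values, from duplicates, describe thermal stability against control samples on a log2 fold-change scale.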

Sequences of proteins named here, by UniProt entry; tags and fusion partners are left off. A change or cut given only in a name is not applied to a line headed by its entry.
UniProt P35658: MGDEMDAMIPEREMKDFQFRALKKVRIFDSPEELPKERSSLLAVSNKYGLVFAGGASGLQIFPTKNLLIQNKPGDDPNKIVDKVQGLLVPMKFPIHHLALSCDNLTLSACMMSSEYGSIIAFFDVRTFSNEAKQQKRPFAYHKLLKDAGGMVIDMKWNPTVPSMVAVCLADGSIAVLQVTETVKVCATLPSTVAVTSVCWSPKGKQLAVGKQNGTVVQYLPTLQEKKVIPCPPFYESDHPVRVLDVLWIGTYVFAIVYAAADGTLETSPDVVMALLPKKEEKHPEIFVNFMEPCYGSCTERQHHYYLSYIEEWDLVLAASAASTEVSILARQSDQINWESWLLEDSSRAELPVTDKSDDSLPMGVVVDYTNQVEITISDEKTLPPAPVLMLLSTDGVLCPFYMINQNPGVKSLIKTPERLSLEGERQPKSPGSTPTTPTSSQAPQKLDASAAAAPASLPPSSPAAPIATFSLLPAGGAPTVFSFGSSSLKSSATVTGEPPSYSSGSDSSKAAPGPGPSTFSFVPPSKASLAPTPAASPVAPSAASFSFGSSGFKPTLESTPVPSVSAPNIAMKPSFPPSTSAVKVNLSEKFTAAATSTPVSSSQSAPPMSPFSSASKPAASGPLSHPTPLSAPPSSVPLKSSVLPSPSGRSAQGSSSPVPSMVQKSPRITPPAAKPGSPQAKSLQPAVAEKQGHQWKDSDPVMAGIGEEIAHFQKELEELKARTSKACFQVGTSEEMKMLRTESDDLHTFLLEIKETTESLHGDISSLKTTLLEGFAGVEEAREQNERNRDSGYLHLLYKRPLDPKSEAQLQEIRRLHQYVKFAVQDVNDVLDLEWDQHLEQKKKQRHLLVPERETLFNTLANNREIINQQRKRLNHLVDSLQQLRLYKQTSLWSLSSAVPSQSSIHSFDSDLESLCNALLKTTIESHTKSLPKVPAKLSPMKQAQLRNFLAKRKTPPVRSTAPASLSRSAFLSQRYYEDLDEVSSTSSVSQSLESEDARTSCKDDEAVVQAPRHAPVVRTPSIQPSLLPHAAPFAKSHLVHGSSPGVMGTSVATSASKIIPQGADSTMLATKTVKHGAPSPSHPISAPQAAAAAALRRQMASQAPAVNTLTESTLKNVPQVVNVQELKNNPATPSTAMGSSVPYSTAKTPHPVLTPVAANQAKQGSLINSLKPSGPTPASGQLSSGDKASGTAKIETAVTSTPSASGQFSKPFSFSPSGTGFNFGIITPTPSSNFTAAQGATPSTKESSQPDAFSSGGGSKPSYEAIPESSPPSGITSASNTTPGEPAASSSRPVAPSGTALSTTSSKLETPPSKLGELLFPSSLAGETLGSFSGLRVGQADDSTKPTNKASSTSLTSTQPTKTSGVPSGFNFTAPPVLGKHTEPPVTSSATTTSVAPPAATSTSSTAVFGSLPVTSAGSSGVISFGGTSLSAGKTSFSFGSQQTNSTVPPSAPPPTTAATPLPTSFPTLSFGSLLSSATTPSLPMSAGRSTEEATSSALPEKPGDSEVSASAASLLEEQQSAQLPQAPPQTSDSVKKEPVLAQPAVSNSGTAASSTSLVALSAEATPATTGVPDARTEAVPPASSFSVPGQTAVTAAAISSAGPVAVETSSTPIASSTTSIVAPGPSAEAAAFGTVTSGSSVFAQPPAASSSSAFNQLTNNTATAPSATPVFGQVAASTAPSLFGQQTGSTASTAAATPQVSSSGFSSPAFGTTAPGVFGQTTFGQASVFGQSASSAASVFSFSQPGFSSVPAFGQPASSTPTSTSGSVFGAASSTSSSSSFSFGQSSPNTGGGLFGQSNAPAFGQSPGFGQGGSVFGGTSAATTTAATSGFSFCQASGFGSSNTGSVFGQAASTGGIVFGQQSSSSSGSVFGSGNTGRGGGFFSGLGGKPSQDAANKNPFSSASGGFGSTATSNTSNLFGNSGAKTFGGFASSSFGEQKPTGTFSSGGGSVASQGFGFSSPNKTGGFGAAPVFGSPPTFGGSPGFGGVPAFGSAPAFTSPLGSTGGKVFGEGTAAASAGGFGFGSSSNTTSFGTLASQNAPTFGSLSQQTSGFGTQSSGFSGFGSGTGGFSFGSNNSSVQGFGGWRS
UniProt O15294: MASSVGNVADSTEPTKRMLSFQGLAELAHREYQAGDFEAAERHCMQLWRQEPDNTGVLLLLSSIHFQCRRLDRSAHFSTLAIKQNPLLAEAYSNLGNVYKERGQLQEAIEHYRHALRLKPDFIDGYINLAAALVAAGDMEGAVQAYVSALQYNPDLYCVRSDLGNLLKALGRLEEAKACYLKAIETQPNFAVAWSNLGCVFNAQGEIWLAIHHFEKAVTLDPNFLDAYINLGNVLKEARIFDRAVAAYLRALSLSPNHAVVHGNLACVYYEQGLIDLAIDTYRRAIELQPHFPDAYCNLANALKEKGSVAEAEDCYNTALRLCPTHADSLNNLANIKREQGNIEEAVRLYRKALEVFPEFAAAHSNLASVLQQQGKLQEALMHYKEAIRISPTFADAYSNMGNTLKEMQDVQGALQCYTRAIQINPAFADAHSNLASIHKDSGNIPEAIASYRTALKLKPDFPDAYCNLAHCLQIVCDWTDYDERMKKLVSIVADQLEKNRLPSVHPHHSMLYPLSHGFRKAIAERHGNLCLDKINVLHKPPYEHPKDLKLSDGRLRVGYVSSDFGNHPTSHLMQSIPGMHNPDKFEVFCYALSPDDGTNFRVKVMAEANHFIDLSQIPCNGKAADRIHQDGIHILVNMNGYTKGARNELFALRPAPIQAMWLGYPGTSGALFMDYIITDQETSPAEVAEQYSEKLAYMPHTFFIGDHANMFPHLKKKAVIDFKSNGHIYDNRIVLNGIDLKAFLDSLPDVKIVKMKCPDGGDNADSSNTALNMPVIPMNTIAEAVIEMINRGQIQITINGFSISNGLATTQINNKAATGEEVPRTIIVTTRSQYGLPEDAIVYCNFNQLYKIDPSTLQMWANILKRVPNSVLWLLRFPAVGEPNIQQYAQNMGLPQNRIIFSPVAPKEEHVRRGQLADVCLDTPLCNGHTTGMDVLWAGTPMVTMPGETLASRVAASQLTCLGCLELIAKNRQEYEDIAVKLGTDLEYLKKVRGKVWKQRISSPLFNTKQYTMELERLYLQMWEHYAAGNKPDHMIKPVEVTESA
UniProt Q8TEM1: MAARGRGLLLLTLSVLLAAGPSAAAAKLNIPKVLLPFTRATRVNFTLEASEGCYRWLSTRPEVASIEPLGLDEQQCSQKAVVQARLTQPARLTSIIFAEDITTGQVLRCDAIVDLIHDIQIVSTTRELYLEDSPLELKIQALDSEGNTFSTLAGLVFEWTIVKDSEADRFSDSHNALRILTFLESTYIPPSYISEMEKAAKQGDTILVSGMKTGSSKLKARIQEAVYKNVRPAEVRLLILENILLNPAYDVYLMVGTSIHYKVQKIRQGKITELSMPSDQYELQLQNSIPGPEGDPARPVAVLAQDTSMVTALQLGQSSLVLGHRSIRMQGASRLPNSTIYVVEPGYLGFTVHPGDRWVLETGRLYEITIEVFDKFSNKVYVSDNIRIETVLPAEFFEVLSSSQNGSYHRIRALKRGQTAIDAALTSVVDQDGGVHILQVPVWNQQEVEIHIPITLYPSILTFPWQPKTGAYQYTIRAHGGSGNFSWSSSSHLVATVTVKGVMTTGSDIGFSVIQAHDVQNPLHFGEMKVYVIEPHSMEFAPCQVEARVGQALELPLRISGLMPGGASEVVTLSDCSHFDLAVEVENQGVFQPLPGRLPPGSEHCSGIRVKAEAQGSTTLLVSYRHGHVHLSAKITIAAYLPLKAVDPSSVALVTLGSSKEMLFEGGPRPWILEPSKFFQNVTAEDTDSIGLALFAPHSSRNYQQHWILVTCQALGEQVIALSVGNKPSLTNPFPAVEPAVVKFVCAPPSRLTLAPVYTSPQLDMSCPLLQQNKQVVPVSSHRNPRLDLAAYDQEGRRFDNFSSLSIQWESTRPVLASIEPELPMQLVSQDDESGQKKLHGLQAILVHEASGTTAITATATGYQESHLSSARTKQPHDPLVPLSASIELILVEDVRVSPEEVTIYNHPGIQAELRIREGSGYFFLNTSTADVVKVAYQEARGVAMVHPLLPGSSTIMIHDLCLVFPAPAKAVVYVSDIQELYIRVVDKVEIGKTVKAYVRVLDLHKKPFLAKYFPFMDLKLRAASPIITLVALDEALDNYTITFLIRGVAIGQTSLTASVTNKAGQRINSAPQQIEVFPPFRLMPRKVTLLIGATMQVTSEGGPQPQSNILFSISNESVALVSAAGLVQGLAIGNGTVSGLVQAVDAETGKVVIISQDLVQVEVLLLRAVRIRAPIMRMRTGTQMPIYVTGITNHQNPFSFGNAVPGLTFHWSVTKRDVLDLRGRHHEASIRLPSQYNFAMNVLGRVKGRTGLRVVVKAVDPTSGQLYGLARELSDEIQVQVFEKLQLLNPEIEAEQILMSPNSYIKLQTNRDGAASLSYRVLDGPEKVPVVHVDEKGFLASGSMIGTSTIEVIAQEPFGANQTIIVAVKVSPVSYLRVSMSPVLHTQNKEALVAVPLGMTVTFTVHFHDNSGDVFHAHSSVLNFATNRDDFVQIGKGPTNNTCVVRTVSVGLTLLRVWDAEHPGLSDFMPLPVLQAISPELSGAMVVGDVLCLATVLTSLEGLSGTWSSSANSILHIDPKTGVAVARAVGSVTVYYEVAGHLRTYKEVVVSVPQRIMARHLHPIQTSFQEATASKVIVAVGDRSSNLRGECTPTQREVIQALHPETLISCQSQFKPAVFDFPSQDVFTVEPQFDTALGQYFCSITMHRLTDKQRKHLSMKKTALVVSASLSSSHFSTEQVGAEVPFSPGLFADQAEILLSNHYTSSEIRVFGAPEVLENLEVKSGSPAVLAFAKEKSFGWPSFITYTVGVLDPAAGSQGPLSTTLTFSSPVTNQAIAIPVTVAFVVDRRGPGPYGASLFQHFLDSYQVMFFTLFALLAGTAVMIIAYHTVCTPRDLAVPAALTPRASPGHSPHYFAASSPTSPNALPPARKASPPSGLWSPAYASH
UniProt Q9Y266: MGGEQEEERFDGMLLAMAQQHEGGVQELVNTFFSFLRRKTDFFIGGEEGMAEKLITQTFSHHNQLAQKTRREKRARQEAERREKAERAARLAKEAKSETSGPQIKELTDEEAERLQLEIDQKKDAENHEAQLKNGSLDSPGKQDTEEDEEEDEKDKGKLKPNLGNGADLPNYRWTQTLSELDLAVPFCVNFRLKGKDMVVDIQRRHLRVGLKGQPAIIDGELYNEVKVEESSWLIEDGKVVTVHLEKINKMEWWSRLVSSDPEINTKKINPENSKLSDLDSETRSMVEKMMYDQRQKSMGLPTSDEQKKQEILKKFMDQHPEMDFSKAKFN
UniProt Q9NZJ9: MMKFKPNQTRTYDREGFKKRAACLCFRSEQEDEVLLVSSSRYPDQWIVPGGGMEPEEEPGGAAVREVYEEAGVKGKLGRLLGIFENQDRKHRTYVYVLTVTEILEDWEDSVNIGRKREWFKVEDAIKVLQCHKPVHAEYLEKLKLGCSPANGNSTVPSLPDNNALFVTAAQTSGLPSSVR
UniProt P57740: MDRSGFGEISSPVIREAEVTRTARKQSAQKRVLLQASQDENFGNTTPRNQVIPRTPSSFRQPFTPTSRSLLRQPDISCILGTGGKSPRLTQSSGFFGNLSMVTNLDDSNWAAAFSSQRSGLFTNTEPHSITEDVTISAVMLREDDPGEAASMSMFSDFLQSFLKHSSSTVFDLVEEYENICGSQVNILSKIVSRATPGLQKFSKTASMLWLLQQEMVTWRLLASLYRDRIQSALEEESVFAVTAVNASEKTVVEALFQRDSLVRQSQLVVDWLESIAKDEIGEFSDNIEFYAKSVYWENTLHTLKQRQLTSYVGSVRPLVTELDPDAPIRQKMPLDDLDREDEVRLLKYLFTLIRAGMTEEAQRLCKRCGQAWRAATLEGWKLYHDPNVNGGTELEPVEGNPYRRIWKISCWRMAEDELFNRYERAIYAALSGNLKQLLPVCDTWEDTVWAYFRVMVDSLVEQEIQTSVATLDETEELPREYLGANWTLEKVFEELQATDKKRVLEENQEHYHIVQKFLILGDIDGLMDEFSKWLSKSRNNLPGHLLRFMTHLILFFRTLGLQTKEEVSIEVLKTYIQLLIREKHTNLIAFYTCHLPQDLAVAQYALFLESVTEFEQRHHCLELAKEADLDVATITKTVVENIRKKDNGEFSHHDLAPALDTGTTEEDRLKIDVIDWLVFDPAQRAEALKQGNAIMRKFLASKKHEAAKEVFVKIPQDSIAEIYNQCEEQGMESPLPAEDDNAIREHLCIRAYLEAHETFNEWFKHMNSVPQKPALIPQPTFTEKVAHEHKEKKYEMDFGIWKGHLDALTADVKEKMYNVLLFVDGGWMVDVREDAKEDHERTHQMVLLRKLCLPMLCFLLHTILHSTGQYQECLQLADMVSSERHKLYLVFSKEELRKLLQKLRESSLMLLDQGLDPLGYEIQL

[2] = compound: CC1=C(SC2=C1C(=N[C@H](C3=NN=C(N32)C)CC(=O)N)C4=CC=C(C=C4)Cl)C
Summary of the method: as §1

[3] = compound: CC1=C2C(=CC=C1)N=C(N(C2=O)C3=CC=CC=C3C)CN4C=NC5=C(N=CN=C54)N
Summary of the method: as §1

[4] = compound: Cc1sc2c(c1C)C(c1ccc(Cl)cc1)=N[C@@H](CC(=O)OC(C)(C)C)c1nnc(C)n1-2
Summary of the method: as §1

[5] = compound: c1ccc([C@@H]2C[C@H]2NC2CCNCC2)cc1
Summary of the method: as §1

Measured: log2 fold change

P4HA2 (UniProt O15460)
inactive: [1] 0.006 | [2] -0.033 | [3] -0.014 | [4] -0.007 | [5] -0.043

NUP214 isoform 5 (UniProt P35658)
inactive: [1] -0.033 | [2] -0.031 | [3] 0.022 | [4] 0.029 | [5] 0.022

OSBPL8 (UniProt Q9BZF1)
inactive: [1] -0.051 | [2] -0.071 | [3] 0.007 | [4] -0.018 | [5] -0.002

OGT (UniProt O15294)
inactive: [1] 0 | [2] 0.008 | [3] 0.037 | [4] -0.016 | [5] -0.005

OXR1 (UniProt Q8N573)
inactive: [1] -0.021 | [2] 0.026 | [3] 0.039 | [4] -0.041 | [5] -0.069

OXSM (UniProt Q9NWU1)
inactive: [1] 0.072 | [2] -0.007 | [3] 0.045 | [4] -0.007 | [5] 0.036

NSUN6 (UniProt Q8TEA1)
inactive: [1] -0.014 | [2] 0.034 | [3] 0.053 | [4] -0.002 | [5] -0.034

OTUD4 (UniProt Q01804)
inactive: [1] 0.033 | [2] -0.034 | [3] -0.05 | [4] 0.111 | [5] 0.011

ORC4 (UniProt O43929)
inactive: [1] -0.098 | [2] 0.008 | [3] 0.118 | [4] 0.005 | [5] 0.012

Two neighbouring records from above:
OTUD4 (UniProt Q01804)
inactive: [1] 0.033 | [2] -0.034 | [3] -0.05 | [4] 0.111 | [5] 0.011

ORC4 (UniProt O43929)
inactive: [1] -0.098 | [2] 0.008 | [3] 0.118 | [4] 0.005 | [5] 0.012

(next part)

OXA1L (UniProt Q15070)
inactive: [1] 0.014 | [2] -0.01 | [3] 0.018 | [4] 0 | [5] 0.009

NSMCE2 (UniProt Q96MF7)
inactive: [1] 0.074 | [2] 0.031 | [3] 0.075 | [4] 0.004 | [5] -0.017

ODR4 (UniProt Q5SWX8)
inactive: [1] -0.029 | [2] 0.04 | [3] 0.055 | [4] -0.005 | [5] -0.041

NUP210 (UniProt Q8TEM1)
inactive: [1] -0.083 | [2] 0.059 | [3] 0.037 | [4] -0.013 | [5] -0.028

OTUD7B (UniProt Q6GQQ9)
inactive: [1] -0.332 | [2] 0.095 | [3] 0.165 | [4] -0.099 | [5] -0.049

NUDC (UniProt Q9Y266)
inactive: [1] -0.033 | [2] 0.071 | [3] 0.011 | [4] 0.003 | [5] -0.041

PABPC1 (UniProt P11940)
inactive: [1] 0.069 | [2] -0.06 | [3] -0.048 | [4] 0.142 | [5] 0.025

NUP160 (UniProt Q12769)
inactive: [1] -0.013 | [2] 0.043 | [3] 0.038 | [4] 0.014 | [5] 0.044

OAT (UniProt P04181)
inactive: [1] -0.019 | [2] 0.083 | [3] 0.05 | [4] -0.024 | [5] -0.045

NUDT4 (UniProt Q9NZJ9)
inactive: [1] -0.052 | [2] 0.04 | [3] 0.05 | [4] 0.017 | [5] -0.023

OTULIN (UniProt Q96BN8)
inactive: [1] -0.07 | [2] -0.019 | [3] 0.124 | [4] 0.005 | [5] 0.005

NUP107 (UniProt P57740)
inactive: [1] -0.02 | [2] -0.043 | [3] 0.051 | [4] 0.052 | [5] 0.025

NT5C3A (UniProt Q9H0P0)
inactive: [1] -0.039 | [2] -0.019 | [3] -0.079 | [4] 0.017 | [5] -0.077

NUDT12 (UniProt Q9BQG2)
inactive: [1] -0.015 | [2] -0.012 | [3] 0.109 | [4] -0.019 | [5] -0.015

NUP62 (UniProt P37198)
inactive: [1] -0.039 | [2] 0.015 | [3] 0.14 | [4] -0.023 | [5] -0.039
